No constants are given. Whether binding was seen depends on the method and setting. In cells and extracts the contact can be indirect. A yes stands for co-enrichment or nearness to the bait. Other partners may have been found. Where a sequence is shown, tags or fusion partners need not be part of it.
Target: T1, FLAG-tagged TMIGD1 (transmembrane and immunoglobulin domain-containing protein 1) (UniProt Q6UXZ0)
T1 sequence: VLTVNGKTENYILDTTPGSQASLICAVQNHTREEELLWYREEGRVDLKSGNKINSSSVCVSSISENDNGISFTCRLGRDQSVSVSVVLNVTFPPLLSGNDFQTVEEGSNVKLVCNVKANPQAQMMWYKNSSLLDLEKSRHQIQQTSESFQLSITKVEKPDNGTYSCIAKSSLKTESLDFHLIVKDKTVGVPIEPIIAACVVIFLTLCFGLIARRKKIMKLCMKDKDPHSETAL
Assay: affinity purification with mass spectrometry; anti-FLAG immunoprecipitate (control: anti-IgG) from lysates of NCM460 and Caco2 cells overexpressing FLAG-tagged TMIGD1; LC-MS/MS and proteomics analysis

B1: BAF nuclear assembly factor 1 (BANF1) (protein, UniProt O75531 1-89)
chain: MTTSQKHRDFVAEPMGEKPVGSLAGIGEVLGKKLEERGFDKAYVVLGQFLVLKKDEDLFREWLKDTCGANAKQSRDCFGCLREWCDAFL
  binding: binds
